The record followed here is article doi:10.1101/2022.02.02.478792.

Sequences of proteins named here, by UniProt entry; tags and fusion partners are left off.
UniProt P13164: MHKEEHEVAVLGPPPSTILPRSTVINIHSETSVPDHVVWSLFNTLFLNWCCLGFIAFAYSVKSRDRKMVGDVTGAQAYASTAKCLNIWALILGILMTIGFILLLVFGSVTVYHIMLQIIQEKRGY
UniProt Q07955: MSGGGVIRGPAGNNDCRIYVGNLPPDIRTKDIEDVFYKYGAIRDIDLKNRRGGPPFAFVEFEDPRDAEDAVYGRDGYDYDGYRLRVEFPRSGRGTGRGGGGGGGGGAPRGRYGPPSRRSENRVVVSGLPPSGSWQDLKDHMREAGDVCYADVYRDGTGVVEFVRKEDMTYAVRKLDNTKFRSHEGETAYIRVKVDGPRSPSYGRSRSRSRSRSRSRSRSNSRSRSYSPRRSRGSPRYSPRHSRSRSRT

This test has as its target SBP-tagged IFITM1 protein (human) (UniProt P13164). Briefly: affinity purification with mass spectrometry.

Results are given in words; binding and its absence hold for the method and conditions named. Binding seen in cells or lysates may run through a third protein. These calls come from enrichment with a bait or labelling near it, and not all partners need be listed.

In the case of “serine and arginine-rich splicing factor 1 (SRSF1) (from UniProt Q07955 1-248)”, the binding result is “binds”.

B1: U2AF1 (protein, UniProt Q01081 1-240)
chain: MAEYLASIFGTEKDKVNCSFYFKIGACRHGDRCSRLHNKPTFSQTIALLNIYRNPQNSSQSADGLRCAVSDVEMQEHYDEFFEEVFTEMEEKYGEVEEMNVCDNLGDHLVGNVYVKFRREEDAEKAVIDLNNRWFNGQPIHAELSPVTDFREACCRQYEMGECTRGGFCNFMHLKPISRELRRELYGRRRKKHRSRSRSRERRSRSRDRGRGGGGGGGGGGGGRERDRRRSRDRERSGRF
With B1, the binding entry is on record as “binds”.

B2: SRSF6 (protein, UniProt Q13247 1-344)
chain: MPRVYIGRLSYNVREKDIQRFFSGYGRLLEVDLKNGYGFVEFEDSRDADDAVYELNGKELCGERVIVEHARGPRRDRDGYSYGSRSGGGGYSSRRTSGRDKYGPPVRTEYRLIVENLSSRCSWQDLKDFMRQAGEVTYADAHKERTNEGVIEFRSYSDMKRALDKLDGTEINGRNIRLIEDKPRTSHRRSYSGSRSRSRSRRRSRSRSRRSSRSRSRSISKSRSRSRSRSKGRSRSRSKGRKSRSKSKSKPKSDRGSHSHSRSRSKDEYEKSRSRSRSRSPKENGKGDIKSKSRSRSQSRSNSPLPVPPSKARSVSPPPKRATSRSRSRSRSKSRSRSRSSSRD
As to B2, the binding result was “binds”.

B3: SRSF3 (protein, UniProt P84103 1-164)
chain: MHRDSCPLDCKVYVGNLGNNGNKTELERAFGYYGPLRSVWVARNPPGFAFVEFEDPRDAADAVRELDGRTLCGCRVRVELSNGEKRSRNRGPPPSWGRRPRDDYRRRSPPPRRRSPRRRSFSRSRSRSLSRDRRRERSLSRERNHKPSRSFSRSRSRSRSNERK
As to B3, the binding result is reported as “binds”.

B4: SRSF2 (protein, UniProt Q01130 1-221)
chain: MSYGRPPPDVEGMTSLKVDNLTYRTSPDTLRRVFEKYGRVGDVYIPRDRYTKESRGFAFVRFHDKRDAEDAMDAMDGAVLDGRELRVQMARYGRPPDSHHSRRGPPPRRYGGGGYGRRSRSPRRRRRSRSRSRSRSRSRSRSRYSRSKSRSRTRSRSRSTSKSRSARRSKSKSSSVSRSRSRSRSRSRSRSPPPVSKRESKSRSRSKSPPKSPEEEGAVSS
As for B4, the binding result is “binds”.
